According to PubChem BioAssay AID504582 (Broad Institute, 2011):
Among all 340,000 compounds or so, about 2,300 (0.68%) were called active. Inconclusive results, whose numbers are uncertain, are shown with a selection of clear calls. Cut-off read from the data, not from the text of the source: active = growth rescue above about 28% (passing the limit was not always enough); inconclusive = no clear call, values can overlap the other calls.

Experiment: rescue of yeast from PfHsp40 toxicity, primary screen, S. cerevisiae, ATP luminescence (AID 504582);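 note: yeast W303a lacking pdr1 and pdr3 grown in galactose medium; growth measured after three days at 30 °C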
Settings: S. cerevisiae expressing PfHsp40, growth rescue, at 12.5 µM, hits give high values

SMILES | growth rescue
CCCn1c(SCC(=O)NC(=O)NC(C)(C)C)n[nH]c1=O | inconclusive: 50.8%
Nc1nc(-c2ccccn2)nc(N)c1Cc1c(F)cccc1Cl | inactive: -0.105%
CNC(=O)C(=O)Nc1nc(C23CC4CC(CC(C4)C2)C3)cs1 | inactive: -0.633%
CC(=O)c1ccc(OCCCC(=O)N2CCN(S(=O)(=O)c3ccc(C(C)C)cc3)CC2)cc1 | inconclusive: 43.4%
O=C(CSc1nnc2ccccn12)NNC(=O)c1ccc([N+](=O)[O-])cc1 | inconclusive: 28.2%
COc1ccccc1-c1nnc(SCC(=O)O)n1C | inconclusive: 47.7%
CCOC(=O)c1ccc(N2C(=O)CC(N3CCN(C(=O)c4ccccc4)CC3)C2=O)cc1 (configuration not stated) | active: 53.1%
Cc1nn(-c2ccccc2)c(Cl)c1/C=N/Nc1nc2ccccc2[nH]1 | inactive: 1.72%
Clc1ccc(COn2c(-c3ccc(Cl)cc3Cl)nc3ncccc32)cc1 | inconclusive: 71.7%
CCCn1c(O)c(N=NC(=O)CNC(=O)/C=C/c2ccc(OC)cc2)c2ccccc21 | inactive: 0.658%
COc1ccc2cc3cc(C(=O)NCC4COc5ccccc5O4)oc3nc2c1 (configuration not stated) | inactive: 2.3%
Oc1ccccc1C=NCCN1CCN(CCN=Cc2ccccc2O)C1c1ccccc1O (configuration not stated) | inconclusive: 146%
Cc1ccc(S(=O)(=O)N(C)c2ccc(OCC(=O)N3CCCCC3)cc2)cc1 | inactive: 0.526%
CC(=O)c1cnc(N2CCCCC2)nc1C | inactive: -0.801%
Cc1nc2c(ccc3nc(NC(=O)Cc4ccccc4)sc32)s1 | active: 29.3%
O=C(O)C/C(=C\c1ccc(Cl)cc1)c1nc2ccccc2o1 | active: 135%
O=C(NOC(=O)c1ccccc1)c1ccccc1 | active: 239%
COc1ccccc1-c1sc2ccccc2c1-c1ccc(O)cc1 | inconclusive: 125%
Cc1cc(C)c(C)c(S(=O)(=O)N2CCN(C(=S)NCC3CCCO3)CC2)c1C (configuration not stated) | inconclusive: 46.7%
O=C(Nc1cccnc1)OCc1ccccc1 | inconclusive: 25.5%
Brc1ccc2ncnc(Nc3cccc4ccccc34)c2c1 | inconclusive: 32.6%
Cc1cc2ncn(CCC(=O)NC(C)(C)C)c2cc1C | inactive: -2.06%
O=C(c1ccccc1)c1cccn1CC(=O)N1CCN(c2ccccc2)CC1 | inconclusive: 27.3%

7 records drawn at random from the list so far, as already listed:
SMILES | growth rescue
Cc1nc2c(ccc3nc(NC(=O)Cc4ccccc4)sc32)s1 | active: 29.3%
COc1ccccc1-c1sc2ccccc2c1-c1ccc(O)cc1 | inconclusive: 125%
Cc1cc2ncn(CCC(=O)NC(C)(C)C)c2cc1C | inactive: -2.06%
O=C(O)C/C(=C\c1ccc(Cl)cc1)c1nc2ccccc2o1 | active: 135%
Cc1cc(C)c(C)c(S(=O)(=O)N2CCN(C(=S)NCC3CCCO3)CC2)c1C (configuration not stated) | inconclusive: 46.7%
Cc1nn(-c2ccccc2)c(Cl)c1/C=N/Nc1nc2ccccc2[nH]1 | inactive: 1.72%
Clc1ccc(COn2c(-c3ccc(Cl)cc3Cl)nc3ncccc32)cc1 | inconclusive: 71.7%

Carrying on.

SMILES | growth rescue
CN(C1=C(NC(=O)c2ccc(Cl)cc2)C(=O)c2ccccc2C1=O)c1ccccc1 | inconclusive: 58.5%
Cc1ccc(-c2cc(C(=O)Nc3ccc(S(=O)(=O)Nc4onc(C)c4C)cc3)c3ccccc3n2)cc1 | inactive: -0.891%
Clc1cccc(CSc2ncn(-c3ccccc3)n2)c1 | active: 31.1%
CCOc1cccc(/C=C/c2ccc3cccc(O)c3n2)c1OC | active: 168%
Fc1cccc(/C=N/Nc2ccccn2)c1 | inactive: -0.717%
CC(C)(C)C(=O)C(CO)(Oc1ccc(Cl)cc1)n1cncn1 (configuration not stated) | inconclusive: 71.2%
CCN1CCN(Cc2cc(Br)cc(OC)c2O)CC1 | inactive: 0.163%
CCOC(=O)C1=C(NC(=S)NC(=O)c2ccccc2)c2ccccc2CC1(C)CC (configuration not stated) | inconclusive: 47.5%
CC(C)(C)NCC(O)COc1cccc2[nH]c(=O)[nH]c12 (configuration not stated) | inconclusive: 27.5%
CC(C)CCn1c(=O)c2ccccc2n2c(=S)[nH]nc12 | inconclusive: 26%
O=C1c2ccccc2C(O)(c2ccccc2)N1c1ccc([N+](=O)[O-])cc1Cl (configuration not stated) | active: 205%
COc1ccc(C2C3=C(OC(C)=O)c4ccccc4C3=Nc3c2c(=O)n(C)c(=O)n3C)cc1 (configuration not stated) | inconclusive: 95.4%
CCCc1nnc(NC(=O)CCS(=O)(=O)Cc2ccccc2)s1 | inconclusive: 56.6%
Cc1ccc(-c2csc(=S)[nH]2)cc1 | inconclusive: 31.7%
COc1ccc(Cc2noc(CN(C)CC3(N4CCOCC4)CCCCC3)n2)cc1OC | inconclusive: 46.3%
COc1ccc(-c2nc3ccccc3c(=O)n2O)cc1 | inconclusive: 109%
CCC(C)NC(=S)Nc1ccc(F)cc1 (configuration not stated) | inconclusive: 56.9%
Cc1cccc(C(=O)O/N=C(\N)Cc2cccc3ccccc23)c1 | active: 300%
Cc1ccc(N=N/C(=C\O)C(=O)c2ccncc2)cc1 | inconclusive: 94.1%
COc1ccc(NC(=O)C2CC2)cc1-n1cnnn1 | inactive: -1.23%
CCC(=O)N1CCCc2cc(S(=O)(=O)N3CCN(c4ccccn4)CC3)ccc21 | inconclusive: 36.9%
O=C(Nc1cccc(OCC(=O)N2CCOCC2)c1)C1CCCCC1 | inconclusive: 25.9%
O=C(OCC(=O)c1cccs1)c1ccc([N+](=O)[O-])o1 | inactive: -1.26%

SMILES | growth rescue
Cc1sc(NC(=O)CSc2n[nH]c(N)n2)c(C#N)c1C | inactive: 10.1%
C[N+]1(CCCCSc2ccc(O)cc2)CCCCC1 | inactive: 0.324%
Oc1cc(OCc2ccccc2)ccc1-c1[nH]ncc1-c1ccccc1 | inconclusive: 546%
CN(CC(=O)N1CCc2ccccc21)S(=O)(=O)c1cccs1 | inconclusive: 26.7%
c1cc2c(cc1C1CCCCC1)c1c3n2CCCNC3CCC1 (configuration not stated) | inactive: -0.085%
Cc1ccc(NC(=O)CSc2nnc(NC(=O)c3ccco3)s2)cc1 | inconclusive: 43.6%
C/C=C(\C)CN1CCN(c2ccccc2F)CC1 | inconclusive: 28.8%
CCN(CC)CCCCCCCCOC(=O)c1cc(OC)c(OC)c(OC)c1 | inconclusive: 28.7%
C=C(C)COc1ccc(-c2[nH]ncc2-c2ccc(OC)cc2)c(O)c1 | active: 92.1%
CN(C)CCCOC(=O)C1c2ccccc2Oc2ccccc21 | active: 43.6%
CCOC(=O)[C@H]1[C@H]2COc3ccc(Cl)cc3[C@@H]2N2C(=O)CN(CC3CCCO3)C(=O)[C@@]12C (some centres not stated) | inconclusive: 27.8%
COc1ccccc1OCC(O)COC(N)=O (configuration not stated) | inconclusive: 51.9%
CC(=NCCCn1ccnc1)c1c(O)n(C)c(=O)n(C)c1=O | inconclusive: 34.8%
CCN(CC(=O)NCc1cccs1)C(=O)c1ccc(S(=O)(=O)N(CC)c2ccccc2)cc1 | inactive: 3.03%
Cc1cc(C)c(/C=N/NC(N)=O)c(C)c1/C=N/NC(N)=O | inconclusive: 31.7%
Brc1ccc2c(c1)OCCOCCOc1cc(Br)ccc1OCCOCCOCCO2 | inconclusive: 29.1%
CCCCn1c(O)c(/C=C/C=Nc2ccccc2)c(=O)[nH]c1=O | inconclusive: 28.2%
CCn1c(NC(=O)/C=C/c2ccc(F)cc2)nc2ccccc21 | inconclusive: 105%
CCOCCCNCC(=O)NCC1CCCCC1 | inconclusive: 30.5%
Cc1cccc2c1-c1sc(C(=O)N3CCCCC3)cc1CO2 | inconclusive: 73.8%
Clc1ccc(-c2cnnc(-c3ccccn3)n2)cc1 | inconclusive: 60.8%
CCc1nnc(N/N=C/c2ccccc2F)n1N | inactive: 0.305%
COc1cc(OC)cc(-c2sc3ccc(OC)cc3c2-c2ccc(O)cc2)c1 | inconclusive: 113%

SMILES | growth rescue
CCCc1nc(SCC(=O)NNC(=O)C2CCCCC2)c2ccccc2n1 | inactive: -0.92%
COc1cc(C(=O)NCC(=O)N2CCN(S(=O)(=O)c3ccccc3)CC2)cc(OC)c1OC | inactive: 0.177%
Cc1cc(C)nc(NS(=O)(=O)c2ccc(N)cc2)n1 | inactive: -0.854%
COc1ccc(/C=N/S(=O)(=O)c2ccc(C)cc2)cc1 | inactive: -1.53%
Cc1ccc(NC(=O)COC(=O)Cn2cnc3c2c(=O)n(C)c(=O)n3C)c(Cl)c1 | inconclusive: 52.6%
CCOc1ccc(C(C)=O)cc1COC(=O)c1ccccc1C(=O)N(C)Cc1ccccc1 | active: 96%
Cc1cc(C)c2c(N)c(C(=O)NC3CC3)sc2n1 | inactive: 1.14%
CC(=O)c1cccc(S(=O)(=O)N2CCCC(c3nc4c(nnn4Cc4cccc(Cl)c4)c(=O)[nH]3)C2)c1 (configuration not stated) | inactive: -0.476%
O=C(/C=C/c1ccccc1)Nc1cccnc1Cl | inactive: 0.05%
ClC(Cl)=C(c1ccc(Cl)cc1)c1ccc(Cl)cc1 | inconclusive: 26.9%
Cc1cc(=O)n2[nH]c(-c3ccc(C(C)(C)C)cc3)cc2n1 | inactive: -0.075%
COc1cc(C#Cc2c(-c3ccccc3)n(C)c3ccccc23)cc(OC)c1 | inactive: -1.12%
COc1cc(N(Cc2ccccc2)Cc2ccccc2)c2ncn(C(C)C)c2c1 | inconclusive: 30.2%
CCCc1[nH]nc2c1C(c1cc(OC)ccc1F)C(C#N)=C(N)O2 (configuration not stated) | inactive: -0.411%
NC(=S)N=Nc1ccc(NN=C(N)N)cc1 | inconclusive: 34.9%
COc1ccc(C)cc1S(=O)(=O)N(CC(=O)N1CCOCC1)c1cc(C)cc(C)c1 | inconclusive: 52%
COc1ccc2c(c1)OC[C@H]1[C@H]2N2C(=O)c3cc(C)ccc3NC(=O)[C@@]2(C)[C@H]1c1ccccc1 | active: 297%
CCN(CC(=O)Nc1ccc(NC(C)=O)cc1)C(=O)c1cc(-c2ccccc2)nn1-c1ccccc1 | inconclusive: 33.8%
O=C(CSCC(=O)c1ccccc1)Nc1ccccc1Cl | inconclusive: 28.7%
O=C(Nc1cccc(-c2ccc(N3CCOCC3)nn2)c1)c1ccc([N+](=O)[O-])cc1 | inactive: 1.42%
Cc1ccc(-n2c3nc(=O)[nH]c(=O)c-3cc3c(C)nn(-c4ccccc4)c32)c(C)c1 | inconclusive: 35.6%
Cc1[nH][nH]c(=O)c1C(c1ccc(-c2ccc(Cl)c(C(=O)O)c2)o1)c1c(C)[nH][nH]c1=O | inactive: -2.41%
CCOC(=O)[C@H]1[C@H]2COc3cc(OC)ccc3[C@@H]2N2C(=O)N(c3ccc(Cl)cc3)C(=O)[C@@]12C | inconclusive: 29.7%
